This note sets out measurements from patent US20120322060A1, “DIAGNOSIS AND MONITORING TREATMENT OF PSYCHIATRIC DISEASES WITH SPADIN AND RELATED METHODS” (CENTRE NATIONAL DE LE RECHERCHE SCIENTIFIQUE - CNRS -, priority 2011, published 2012).

“Also recorded” adds a separate entry of the source. No end group written: not given here.

This data set has as its system mice. Description: Mouse locomotion activity. It counts as in vivo. The conditions noted are these: i.p., short- or long-time (1 or 24 hours) after injection.

As to `CNCCC(Oc1ccc(C(F)(F)F)cc1)c1ccccc1` (centres unmarked) [fluoxetine, Fluoxetine, reference compound], the locomotor activity result is reported as “Neither spadin nor fluoxetine had any effect”.
Consider APLPRWSGPIGVSWGLR [spadin], for which the locomotor activity result was “Neither spadin nor fluoxetine had any effect; also recorded: no significant difference in locomotor activity”.
